The list shows a part of the results. Most values lie at the level of the controls, where differences are scatter.
compound: CN[C@@H]1C[C@H]2O[C@@](C)([C@@H]1OC)n1c3ccccc3c3c4c(c5c6ccccc6n2c5c31)C(=O)NC4 [staurosporine]; experiment: log2 fold change of tryptic peptide abundance, ligand vs vehicle (limited proteolysis) (log2 ratio); higher = more trypsin-susceptible (destabilized); settings: ligand concentration: 20 uM; sample: K562 cleared lysate; digestion: 4 min, 22 C (HT-PELSA RT4min, Orbitrap Astral)

Amino acid sequences for entries named in this document (tags omitted). A change or cut given only in a name is not applied to a line headed by its entry.
UniProt Q9H3K2: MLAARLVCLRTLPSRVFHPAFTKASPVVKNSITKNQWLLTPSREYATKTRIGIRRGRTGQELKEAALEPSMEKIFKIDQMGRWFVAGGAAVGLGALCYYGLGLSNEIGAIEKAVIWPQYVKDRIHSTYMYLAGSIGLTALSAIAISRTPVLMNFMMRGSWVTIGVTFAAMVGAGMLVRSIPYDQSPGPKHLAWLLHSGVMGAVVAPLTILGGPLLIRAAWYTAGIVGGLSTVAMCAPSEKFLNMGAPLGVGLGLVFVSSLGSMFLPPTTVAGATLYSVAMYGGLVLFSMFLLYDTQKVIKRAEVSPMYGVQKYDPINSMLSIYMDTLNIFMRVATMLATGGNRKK
UniProt Q9H2X9: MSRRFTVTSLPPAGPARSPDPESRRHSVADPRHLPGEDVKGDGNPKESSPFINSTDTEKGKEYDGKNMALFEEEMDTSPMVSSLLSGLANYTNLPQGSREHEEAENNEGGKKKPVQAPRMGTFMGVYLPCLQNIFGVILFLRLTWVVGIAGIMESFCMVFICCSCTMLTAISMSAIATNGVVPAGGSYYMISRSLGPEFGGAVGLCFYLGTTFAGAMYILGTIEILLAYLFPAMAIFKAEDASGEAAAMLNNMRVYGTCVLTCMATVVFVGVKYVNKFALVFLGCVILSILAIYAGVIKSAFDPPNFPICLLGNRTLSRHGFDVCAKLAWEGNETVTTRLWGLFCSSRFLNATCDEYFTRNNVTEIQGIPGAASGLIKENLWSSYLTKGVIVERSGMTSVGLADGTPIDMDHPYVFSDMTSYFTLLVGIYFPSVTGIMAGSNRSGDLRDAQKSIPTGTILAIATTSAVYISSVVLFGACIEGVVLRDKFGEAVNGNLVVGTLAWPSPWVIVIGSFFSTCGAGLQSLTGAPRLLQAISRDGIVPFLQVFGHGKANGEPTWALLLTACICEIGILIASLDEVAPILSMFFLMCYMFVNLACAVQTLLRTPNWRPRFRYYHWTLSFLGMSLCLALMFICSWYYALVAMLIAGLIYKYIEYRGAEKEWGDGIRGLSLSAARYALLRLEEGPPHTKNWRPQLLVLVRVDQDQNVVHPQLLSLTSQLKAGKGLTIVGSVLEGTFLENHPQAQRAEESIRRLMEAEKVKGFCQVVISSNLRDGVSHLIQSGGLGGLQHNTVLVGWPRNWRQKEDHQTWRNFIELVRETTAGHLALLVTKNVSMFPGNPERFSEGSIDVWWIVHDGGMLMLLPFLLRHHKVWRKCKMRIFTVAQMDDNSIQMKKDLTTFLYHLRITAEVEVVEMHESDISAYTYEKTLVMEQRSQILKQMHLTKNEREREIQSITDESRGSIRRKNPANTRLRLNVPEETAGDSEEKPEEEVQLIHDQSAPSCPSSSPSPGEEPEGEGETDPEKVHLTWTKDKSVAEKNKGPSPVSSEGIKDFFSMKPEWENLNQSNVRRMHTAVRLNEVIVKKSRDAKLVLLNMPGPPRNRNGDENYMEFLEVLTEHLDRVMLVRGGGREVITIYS
UniProt Q9H3E2: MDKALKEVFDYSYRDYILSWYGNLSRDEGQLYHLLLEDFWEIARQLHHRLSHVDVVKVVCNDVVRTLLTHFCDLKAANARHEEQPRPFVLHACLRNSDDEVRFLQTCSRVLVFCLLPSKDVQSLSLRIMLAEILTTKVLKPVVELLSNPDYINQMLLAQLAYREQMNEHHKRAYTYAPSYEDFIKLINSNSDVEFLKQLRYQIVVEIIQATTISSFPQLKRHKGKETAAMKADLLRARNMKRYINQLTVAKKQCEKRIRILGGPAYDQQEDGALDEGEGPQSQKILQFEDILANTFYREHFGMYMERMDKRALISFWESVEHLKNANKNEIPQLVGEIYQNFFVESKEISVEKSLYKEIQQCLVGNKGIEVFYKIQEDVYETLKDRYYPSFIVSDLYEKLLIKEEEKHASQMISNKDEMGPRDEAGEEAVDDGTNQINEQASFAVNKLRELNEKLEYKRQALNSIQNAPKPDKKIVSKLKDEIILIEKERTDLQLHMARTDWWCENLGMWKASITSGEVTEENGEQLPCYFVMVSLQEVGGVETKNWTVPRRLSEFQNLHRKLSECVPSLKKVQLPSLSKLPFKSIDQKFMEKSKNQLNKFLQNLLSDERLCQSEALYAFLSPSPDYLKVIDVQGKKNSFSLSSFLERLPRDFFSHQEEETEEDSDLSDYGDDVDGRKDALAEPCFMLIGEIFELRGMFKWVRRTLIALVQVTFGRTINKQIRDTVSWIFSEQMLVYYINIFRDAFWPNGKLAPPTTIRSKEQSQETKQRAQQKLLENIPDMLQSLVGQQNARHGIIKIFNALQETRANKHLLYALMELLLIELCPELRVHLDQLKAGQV
UniProt Q9BWT6: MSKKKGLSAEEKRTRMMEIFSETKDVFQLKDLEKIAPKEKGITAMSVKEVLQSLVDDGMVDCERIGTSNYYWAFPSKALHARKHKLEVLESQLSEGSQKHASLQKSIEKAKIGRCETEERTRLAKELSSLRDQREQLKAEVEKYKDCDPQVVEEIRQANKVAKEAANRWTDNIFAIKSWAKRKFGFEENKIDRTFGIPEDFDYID
UniProt Q9H3C7, whole entry: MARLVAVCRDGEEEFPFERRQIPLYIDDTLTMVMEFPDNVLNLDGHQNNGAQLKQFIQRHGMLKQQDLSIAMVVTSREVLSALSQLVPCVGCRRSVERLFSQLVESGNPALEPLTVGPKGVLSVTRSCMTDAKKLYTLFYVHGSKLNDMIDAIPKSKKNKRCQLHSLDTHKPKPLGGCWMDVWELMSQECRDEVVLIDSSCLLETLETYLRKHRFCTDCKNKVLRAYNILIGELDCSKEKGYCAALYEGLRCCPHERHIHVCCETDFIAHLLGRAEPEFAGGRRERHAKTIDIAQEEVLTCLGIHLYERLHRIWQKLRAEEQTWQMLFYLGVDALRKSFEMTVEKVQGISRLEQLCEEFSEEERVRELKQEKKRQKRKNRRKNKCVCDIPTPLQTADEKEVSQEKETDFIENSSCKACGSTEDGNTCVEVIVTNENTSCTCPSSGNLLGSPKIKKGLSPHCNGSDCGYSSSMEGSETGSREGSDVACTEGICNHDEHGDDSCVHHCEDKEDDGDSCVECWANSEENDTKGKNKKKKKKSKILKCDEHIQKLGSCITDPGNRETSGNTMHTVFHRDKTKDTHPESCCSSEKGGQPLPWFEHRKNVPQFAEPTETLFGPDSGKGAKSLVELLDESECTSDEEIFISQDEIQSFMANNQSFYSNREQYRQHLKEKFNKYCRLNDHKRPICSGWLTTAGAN
UniProt Q9C010: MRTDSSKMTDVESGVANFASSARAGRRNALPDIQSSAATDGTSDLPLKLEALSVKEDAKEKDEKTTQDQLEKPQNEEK
UniProt Q9H2Y7: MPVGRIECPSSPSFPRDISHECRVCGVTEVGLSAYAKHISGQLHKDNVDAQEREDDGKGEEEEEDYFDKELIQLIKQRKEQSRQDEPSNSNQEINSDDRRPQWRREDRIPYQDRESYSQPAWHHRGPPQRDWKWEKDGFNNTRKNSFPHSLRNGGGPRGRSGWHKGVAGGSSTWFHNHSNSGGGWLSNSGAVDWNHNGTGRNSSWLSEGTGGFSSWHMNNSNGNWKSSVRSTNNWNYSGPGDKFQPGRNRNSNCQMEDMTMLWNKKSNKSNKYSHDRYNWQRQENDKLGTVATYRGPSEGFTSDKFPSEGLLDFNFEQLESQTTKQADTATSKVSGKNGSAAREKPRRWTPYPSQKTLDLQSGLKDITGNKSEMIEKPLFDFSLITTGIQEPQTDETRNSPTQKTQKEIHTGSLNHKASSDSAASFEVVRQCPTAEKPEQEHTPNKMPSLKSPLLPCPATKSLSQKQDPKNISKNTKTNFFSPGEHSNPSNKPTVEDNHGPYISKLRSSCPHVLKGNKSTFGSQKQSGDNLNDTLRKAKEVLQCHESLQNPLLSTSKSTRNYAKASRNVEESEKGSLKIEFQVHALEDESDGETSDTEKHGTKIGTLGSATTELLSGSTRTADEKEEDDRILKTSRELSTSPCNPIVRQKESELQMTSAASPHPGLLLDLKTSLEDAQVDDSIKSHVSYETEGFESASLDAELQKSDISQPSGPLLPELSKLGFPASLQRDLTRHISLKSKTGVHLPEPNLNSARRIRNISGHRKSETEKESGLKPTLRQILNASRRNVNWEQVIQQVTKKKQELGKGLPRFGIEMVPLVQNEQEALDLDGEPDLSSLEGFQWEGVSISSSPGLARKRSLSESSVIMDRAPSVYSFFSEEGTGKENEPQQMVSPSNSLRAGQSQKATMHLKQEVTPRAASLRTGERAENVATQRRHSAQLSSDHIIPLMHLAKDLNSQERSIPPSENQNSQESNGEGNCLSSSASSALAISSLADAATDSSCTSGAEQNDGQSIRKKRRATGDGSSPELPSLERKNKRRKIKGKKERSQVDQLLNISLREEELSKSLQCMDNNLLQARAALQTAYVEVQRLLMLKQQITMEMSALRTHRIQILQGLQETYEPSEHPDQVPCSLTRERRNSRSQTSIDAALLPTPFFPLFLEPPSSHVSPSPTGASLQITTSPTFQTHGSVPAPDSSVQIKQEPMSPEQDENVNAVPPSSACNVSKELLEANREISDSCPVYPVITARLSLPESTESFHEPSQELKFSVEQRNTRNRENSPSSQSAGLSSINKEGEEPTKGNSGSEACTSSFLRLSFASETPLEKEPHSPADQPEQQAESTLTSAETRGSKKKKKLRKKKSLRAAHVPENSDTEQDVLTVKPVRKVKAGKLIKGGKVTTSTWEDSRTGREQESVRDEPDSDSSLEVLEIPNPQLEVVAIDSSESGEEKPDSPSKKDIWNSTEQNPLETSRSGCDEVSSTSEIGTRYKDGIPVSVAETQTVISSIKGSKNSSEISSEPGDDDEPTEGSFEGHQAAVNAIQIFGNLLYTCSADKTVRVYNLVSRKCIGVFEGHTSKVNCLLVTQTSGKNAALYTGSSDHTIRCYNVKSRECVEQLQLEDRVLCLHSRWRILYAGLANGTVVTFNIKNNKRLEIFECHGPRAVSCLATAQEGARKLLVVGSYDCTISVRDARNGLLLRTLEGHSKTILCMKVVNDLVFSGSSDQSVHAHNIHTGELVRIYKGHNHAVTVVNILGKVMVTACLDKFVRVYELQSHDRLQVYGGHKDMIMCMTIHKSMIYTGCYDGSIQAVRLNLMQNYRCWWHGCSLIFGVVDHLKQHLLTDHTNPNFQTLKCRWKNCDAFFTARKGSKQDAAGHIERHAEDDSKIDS
UniProt Q9C0D3: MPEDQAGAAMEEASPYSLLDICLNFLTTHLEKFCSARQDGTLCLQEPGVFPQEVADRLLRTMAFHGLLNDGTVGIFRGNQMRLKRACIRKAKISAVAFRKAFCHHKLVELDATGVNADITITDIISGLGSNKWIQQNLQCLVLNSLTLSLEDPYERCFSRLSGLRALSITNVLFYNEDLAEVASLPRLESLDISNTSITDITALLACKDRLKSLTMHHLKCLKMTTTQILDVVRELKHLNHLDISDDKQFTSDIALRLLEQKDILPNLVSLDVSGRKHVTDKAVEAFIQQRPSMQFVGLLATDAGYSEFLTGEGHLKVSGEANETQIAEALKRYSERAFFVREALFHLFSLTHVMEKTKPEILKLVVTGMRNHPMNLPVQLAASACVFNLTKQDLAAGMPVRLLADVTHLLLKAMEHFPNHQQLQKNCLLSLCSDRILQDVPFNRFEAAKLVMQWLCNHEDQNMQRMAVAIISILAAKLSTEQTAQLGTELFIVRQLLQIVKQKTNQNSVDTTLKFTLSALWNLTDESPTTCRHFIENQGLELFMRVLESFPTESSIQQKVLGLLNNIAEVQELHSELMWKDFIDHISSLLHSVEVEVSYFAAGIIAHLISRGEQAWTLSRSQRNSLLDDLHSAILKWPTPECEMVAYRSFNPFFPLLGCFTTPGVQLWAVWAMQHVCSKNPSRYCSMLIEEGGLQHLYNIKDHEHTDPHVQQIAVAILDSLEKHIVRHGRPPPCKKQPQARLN
UniProt Q9H3Y8: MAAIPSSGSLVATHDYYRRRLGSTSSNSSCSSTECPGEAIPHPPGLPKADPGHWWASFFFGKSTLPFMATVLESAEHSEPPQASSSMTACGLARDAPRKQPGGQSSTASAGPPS
UniProt Q9H0A9: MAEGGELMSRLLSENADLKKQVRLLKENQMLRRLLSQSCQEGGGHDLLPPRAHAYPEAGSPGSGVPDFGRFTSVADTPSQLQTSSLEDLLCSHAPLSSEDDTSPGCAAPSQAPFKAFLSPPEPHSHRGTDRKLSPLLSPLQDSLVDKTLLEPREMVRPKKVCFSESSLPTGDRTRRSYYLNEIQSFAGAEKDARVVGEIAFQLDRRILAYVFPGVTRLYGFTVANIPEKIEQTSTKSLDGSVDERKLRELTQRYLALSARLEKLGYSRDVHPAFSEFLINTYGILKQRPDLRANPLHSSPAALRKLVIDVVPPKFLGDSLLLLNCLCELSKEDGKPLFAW

Target | log2 fold change
GHITM (peptide sequence: VATMLATGGNR, peptide start residue: 333) (UniProt Q9H3K2) | 0.472
SLC12A5 (peptide sequence: HLPGEDVK, peptide start residue: 33) (UniProt Q9H2X9) | 0.11
SNX25 (peptide sequence: HEEQPRPFVLHACLR, peptide start residue: 81) (UniProt Q9H3E2) | 0.253
UniProt Q9C0B9 (peptide sequence: ANGLSDPGPLADFREPAVR, peptide start residue: 152) | -0.471
MND1 (peptide sequence: EVLQSLVDDGMVDCER, peptide start residue: 49) (UniProt Q9BWT6) | -0.259
SETD2 (peptide sequence: EMSQFIVQCLNPYR, peptide start residue: 2477) (UniProt Q9BYW2) | 0.559
SIL1 (peptide sequence: LLVILATEQPLTAKK, peptide start residue: 273) (UniProt Q9H173) | 0.759
CSTF2T (peptide sequence: GGTLLSVTGEVEPR, peptide start residue: 339) (UniProt Q9H0L4) | -0.265
GTPBP2 (peptide sequence: RGFQVTVHVGNVR, peptide start residue: 521) (UniProt Q9BX10) | -0.562
TRIM4 (peptide sequence: LNQTIASLKK, peptide start residue: 239) (UniProt Q9C037) | -0.228
IKZF4 (peptide sequence: DLEMVPDSMLHSSSERPTFIDR, peptide start residue: 294) (UniProt Q9H2S9) | -0.14
UniProt Q9BXC9 (peptide sequence: SLLVGAEDAR, peptide start residue: 623) | 0.498
NUSAP1 (peptide sequence: EMESIDQYIERK, peptide start residue: 195) (UniProt Q9BXS6) | 0.327
DOCK9 (peptide sequence: EVGTALQEFR, peptide start residue: 1121) (UniProt Q9BZ29) | 0.347
NPL (peptide sequence: GKDKLDQVIIHVGALSLK, peptide start residue: 74) (UniProt Q9BXD5) | 0.798
GGNBP2 (peptide sequence: EVLSALSQLVPCVGCR, peptide start residue: 78) (UniProt Q9H3C7) | 0.365
INO80B (peptide sequence: LGGQVLGTK, peptide start residue: 75) (UniProt Q9C086) | 0.098
PKIB (peptide sequence: TTQDQLEKPQNEEK, peptide start residue: 65) (UniProt Q9C010) | -0.409
ZNF106 (peptide sequence: SLSESSVIMDR, peptide start residue: 859) (UniProt Q9H2Y7) | 0.292

Part of the list above, in CSV form.
Target,log2 fold change
"UniProt Q9C0B9 (peptide sequence: ANGLSDPGPLADFREPAVR, peptide start residue: 152)",-0.471
"MND1 (peptide sequence: EVLQSLVDDGMVDCER, peptide start residue: 49) (UniProt Q9BWT6)",-0.259

The list goes on:

Target | log2 fold change
UniProt Q9BZF2 (peptide sequence: AGCKPFNPVLGETYECERPDR, peptide start residue: 551) | -1.31
ADNP (peptide sequence: NSSYGKVEGFWSK, peptide start residue: 1030) (UniProt Q9H2P0) | -0.476
CDT1 (peptide sequence: SAAPSSPGSPR, peptide start residue: 386) (UniProt Q9H211) | 0.271
UniProt Q9BYU1 (peptide sequence: MKPALFSVLCEIKEK, peptide start residue: 83) | -0.0992
TOLLIP (peptide sequence: CSEEDLK, peptide start residue: 229) (UniProt Q9H0E2) | -0.178
SSBP4 (peptide sequence: SAQTFLSEIR, peptide start residue: 36) (UniProt Q9BWG4) | -0.214
ZYG11B (peptide sequence: HGRPPPCKK, peptide start residue: 729) (UniProt Q9C0D3) | 0.434
NIF3L1 (peptide sequence: ALMQVVDFLSR, peptide start residue: 217) (UniProt Q9GZT8) | -0.0955
UniProt Q9H3Y8 (peptide sequence: ADPGHWWASFFFGK, peptide start residue: 49) | 0.0126
UniProt Q9BY42 (peptide sequence: PPCGATKR, peptide start residue: 260) | -0.824
UCK2 (peptide sequence: IVQLLGQNEVDYR, peptide start residue: 40) (UniProt Q9BZX2) | -0.409
PACSIN1 (peptide sequence: TEQSVTPEQQK, peptide start residue: 179) (UniProt Q9BY11) | -0.0885
HDHD2 (peptide sequence: AVLVDLSGTLHIEDAAVPGAQEALKR, peptide start residue: 9) (UniProt Q9H0R4) | -0.918
ACBD3 (peptide sequence: DCHEEVYAGSHQYPGR, peptide start residue: 486) (UniProt Q9H3P7) | -0.411
UniProt Q9H0A9 (peptide sequence: SLDGSVDER, peptide start residue: 237) | 0.353
C11orf54 (peptide sequence: HYGNKPIGMGGTFIIQK, peptide start residue: 195) (UniProt Q9H0W9) | 0.317
UNC45A (peptide sequence: KSLKDPNNSLTLWVIDQGLK, peptide start residue: 326) (UniProt Q9H3U1) | -0.186
UniProt Q9C0I1 (peptide sequence: SFLDGIYK, peptide start residue: 295) | 0.245
